The values below come from PMC10163288.

The list shows a part of the results.

B1: il2ra_site1_2b5i_normal_mot_22370d59370c406a0c205a431f537cfa_0001_af2_000000141_0001_1_31_H_._HHH_b2_05265_0001_0000100002_0000001_0 (protein)
chain: SSSSDHELTRFAVRVVWRLAARLGLSNEQRQLLNRLAVELVNRGLSPEEIEEELEKLAEELSSSS
B2: il2ra_site1_2b5i_sap_12_mot_HHH_b2_07873_af2_000000005_0001_23_39_H_._HHH_b2_08174_0001_0000100009_0000001_0_0001_af2pred_dldesign_0_af2pred (protein)
chain: SSSSSEKEDELYDLFQKALEAYRAGKYEEARKLLEEAIKLALELGSTGQAAQLQRLLERLSSSSS
B3: il2ra_site2_3nfp_normal_mot_HHH_b2_08245_af2_000000201_0001_41_55_H_._HHH_b2_03234_af2_0001_0000100013_0000001_1_af2pred_0001_af2pred (protein)
chain: SSSSDEEEEAEEEVREALKRGDDERAKRVVEELALEAAEKNDFELYAAANRLLELILKLEHSSSS
B4: il2ra_site1_1z92_sap_12_mot_7d8a99fbd7d2e4cf462d32eb85bd8b9f_0001_000000000_0001_1_12_H_._753cdabf4d6139bcd7e966370e577bbb_0001_0001_0000200021_0000001_0_0001_a … (protein)
chain: SSSSSDKEEFVEEVVEELVREFGLDEEARELLERAAKHSIENGFSEKSIRRILEFQAKLLSSSSS
B5: il2ra_site1_2b5i_normal_mot_HHH_b2_00525_af2_000000142_0001_43_56_H_._HHH_b1_08452_0001_0000600026_0000001_0_af2pred_dldesign_0_af2pred (protein)
chain: SSSSSSSRRATFERVARLLREAEEVSPEERARLLEEARRLAEEAKDNFLIRMVQSEEDALSSSSS
B6: il2ra_site1_3nfp_normal_mot_f36577d69a6146de1eed06bfb95d352c_0001_1_000000124_0001_19_34_H_._HHH_b1_00879_af2_0001_0000300028_0000001_0 (protein)
chain: SSSSDAQEFLEELVEEAFKRGDRNDLRHLIKALRHALERLGNPEAEELLREAEELLEELRSSSSS
B7: il2ra_site2_3nfp_sap_19_mot_HHH_b2_05281_000000198_0001_39_56_H_._HHH_b2_05437_0001_0000300008_0000001_0_0001 (protein)
chain: DDEEELEEKAEEAAKKNDPELALEVLQLAASDPEAWEKLEEVLEEKNNALLLYSLAAEALRRENS
B8: il2ra_site1_1z92_sap_15_mot_cda1634bf71a07e6bb6bfbc1e51fcdca_0001_000000010_0001_1_14_H_._HHH_b2_04762_af2_0001_0000200017_0000001_0_0001_af2pred_0001_af2pred_1 (protein)
chain: SSSSDERLKRNLERLVESAVKLAGLSEEQEEELRELAQELAERGVDFHEAARIVDELAARLSSSS
B9: il2ra_site1_2b5i_sap_16_mot_0e5a94e4a5addaac739760efb25f0f5d_0001_000000246_0001_18_32_H_._HHH_b1_06461_af2_0001_0000100006_0000001_1_0001_af2pred_dldesign_0_af … (protein)
chain: SSSSDEAFEEIERLYKEALRLFKQGKKEEAKEKLEEALKLAQAANDSVLVSELSRLLELLSSSSS
B10: il2ra_site2_2erj_normal_mot_HHH_b2_05866_000000027_0001_43_57_H_._HHH_b1_01868_af2_0001_0000700044_0000001_1 (protein)
chain: SSSSSEEYEFAARISLRAQELFKNGNPEEARELLEEAEEYLERRNNEEALRYIEFLLRDVSSSSS

The target in the assay is il2ra, P01589. Description: yeast display titration.
With B1, the “apparent Kd” value was “inactive: no binding seen”. The result for B2 reads “inactive: no binding seen”; that for B3, “inactive: no binding seen”; that for B4, “inactive: no binding seen”. For B5, the “apparent Kd” value is “inactive: no binding seen”. With B6, the “apparent Kd” value is “inactive: no binding seen”. Next, B7: “inactive: no binding seen”; B8: “inactive: no binding seen”. Turning to B9, the “apparent Kd” value was “inactive: no binding seen”. The result for B10 reads “inactive: no binding seen”.
